Literature values, collected in US9981985B2, “Pharmaceutical formulations containing 3-(4-cinnamyl-l-piperazinyl) amino derivatives of 3-formylrifamycin SV and 3-formylrifamycin S and a process of their preparation” (Adipharm EAD, priority 2012, dated 2018).
At least one compound was matched to its structure with a doubt left.

Test system: Gram-positive and Gram-negative microorganisms and Mycobacterium tbc
Conditions: from U.S. Pat. No. 4,193,020

In the case of CO[C@H]1/C=C/O[C@@]2(C)Oc3c(C)c(O)c4c(O)c(c(/C=N/N5CCN(C)CC5)c(O)c4c3C2=O)NC(=O)/C(C)=C\C=C\[C@H](C)[C@H](O)[C@@H](C)[C@@H](O)[C@@H](C)[C@H](OC(C)=O)[C@@H]1C [Rifampicin, 3-(4-methyl-1-piperazinil)-iminomethyl rifamycin SV], the activity against microorganisms is given as “activity against Gram-positive and Gram-negative microorganisms and against Mycobacterium tbc”.
